The test deals with Menin (human (endogenous in PL45 and Bx-PC3)) (UniProt O00255). Nature of the test: affinity purification with mass spectrometry; immunoprecipitation from PL45 cell lysate with anti-Menin antibody on beads (Pierce Direct Magnetic IP/Co-IP kit), overnight at 4°C, IgG as negative control; eluted proteins analysed by LC-MS/MS.

By UniProt entry, the sequences of proteins in these tests, tags left out.
UniProt O00255: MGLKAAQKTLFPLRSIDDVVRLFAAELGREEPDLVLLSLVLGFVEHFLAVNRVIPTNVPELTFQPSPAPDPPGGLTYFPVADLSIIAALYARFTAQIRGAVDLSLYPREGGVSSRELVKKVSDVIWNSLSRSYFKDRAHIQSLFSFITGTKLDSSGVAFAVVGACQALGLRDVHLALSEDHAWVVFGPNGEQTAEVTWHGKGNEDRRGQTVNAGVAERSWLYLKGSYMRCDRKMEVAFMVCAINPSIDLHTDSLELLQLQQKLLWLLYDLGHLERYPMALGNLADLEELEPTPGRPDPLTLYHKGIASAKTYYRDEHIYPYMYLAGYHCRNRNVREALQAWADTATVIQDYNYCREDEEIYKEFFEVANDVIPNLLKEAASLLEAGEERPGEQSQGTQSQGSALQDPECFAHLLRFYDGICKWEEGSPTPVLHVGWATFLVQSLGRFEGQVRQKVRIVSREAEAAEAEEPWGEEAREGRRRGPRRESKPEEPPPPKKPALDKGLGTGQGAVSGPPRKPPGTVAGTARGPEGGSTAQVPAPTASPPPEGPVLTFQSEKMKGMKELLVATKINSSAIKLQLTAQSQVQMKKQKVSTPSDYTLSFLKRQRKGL
UniProt P67809: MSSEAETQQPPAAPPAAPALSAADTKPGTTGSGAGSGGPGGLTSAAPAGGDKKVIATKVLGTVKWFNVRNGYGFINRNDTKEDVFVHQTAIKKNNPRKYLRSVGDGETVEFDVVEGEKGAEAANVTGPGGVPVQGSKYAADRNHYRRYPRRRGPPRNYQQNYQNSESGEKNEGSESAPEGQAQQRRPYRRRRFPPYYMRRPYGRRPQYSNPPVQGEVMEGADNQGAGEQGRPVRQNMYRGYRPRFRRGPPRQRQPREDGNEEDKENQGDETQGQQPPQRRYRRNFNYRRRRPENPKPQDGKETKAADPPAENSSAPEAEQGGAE

These are yes or no findings as the source states them, for the method shown. Binding seen in cells or lysates may run through a third protein. Here binding means that the protein was enriched with, or labelled near, the bait; the list need not be complete.

As to “Y-box binding protein 1 (YBX1) (from UniProt P67809 1-324)”, the binding result was “binds”.
